Assay results as given in PubChem BioAssay AID504467 (National Center for Advancing Translational Sciences (NCATS), 2011).
Out of some 330,000 compounds screened, about 7,700 (2.3%) were called active. The inconclusive results got no clear call from the source; some entries with a clear call stand among them for comparison. Calls follow the shape of the dose curve; as a rule, active = well fitted inhibition curve with a large enough effect; inconclusive = small, poorly fitted or top-dose-only effect, or effect the other way; inactive = flat fitted curve, though single readings scatter. Potencies of inconclusive entries are doubtful fits and often do not repeat.

Assay: qHTS screen for small molecules that inhibit ELG1-dependent DNA repair in human embryonic kidney (HEK293T) cells expressing luciferase-tagged ELG1; also: nearly all actives have a fitted effect of over 55% in size
Details: HEK293T ELG1-luciferase reporter, luminescence, 16 h, DNA damage induced by 5-fluorouridine; activity change, negative = inhibition: at 46.1 µM (top of the series)
Outline: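 DMSO vehicle served as the neutral condition. Each well held 2,000 cells given 5-fluorouridine plus compound; after 16 hr at 37 °C/5% CO2, ONE-Glo was added and luciferase measured 30 min later.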
% is scaled to controls: 0 for no effect and ±100 for the full control effect; potency is read from the fitted curve at half-maximal effect.

Question: Which “activity change, negative = inhibition” value does the source give for CCCN1Cc2cccc(C(=O)NCc3ccc(C)cc3)c2C1=O here?
Answer: The value was inactive: -26.7%.

Question: With CCOC(=O)N1CCN(S(=O)(=O)c2ccc(OCC)c(C)c2)CC1 as the compound, how does the Potency read?
Answer: The Potency was inconclusive: 29.1 µM [inhibitor, single point].

Question: For Clc1ccc(-c2nc3ccccc3n2OCc2ccccc2)cc1, which “activity change, negative = inhibition” value is on record?
Answer: Its value is inactive: -14.3%.

Question: For Cc1cccc(C)c1NC(=O)CNC(=O)c1ccc(COc2ccccc2)cc1, which “activity change, negative = inhibition” value is on record?
Answer: Its value is inactive: 28%.

Question: For O=C(Cn1c(C(=O)N2CCc3ccccc3C2)cc2sccc21)c1ccccc1, which Potency is on record?
Answer: The Potency was inconclusive: 16.4 µM [inhibitor, partial curve].

Question: Which Potency does the source give for C=CCOC(=O)C1=C[C@H](c2cn(C(C)=O)c3ccccc23)C[C@H](OCc2ccc(CO)cc2)O1 here?
Answer: Its Potency is inconclusive: 18.3 µM [inhibitor, single point].

Question: Which Potency does the source give for CC(=O)N(C)c1ccc(NC(=S)Nc2cccc3ccccc23)cc1 here?
Answer: Its Potency is inconclusive: 29.1 µM [activator, partial curve, poor fit].

Question: With CSc1ccccc1NC(=O)CN(C)Cc1cccc(Cl)c1 as the compound, how does the “activity change, negative = inhibition” value read?
Answer: Its value is inactive: -5.91%.

Question: Which Potency does the source give for N#Cc1ccc(-c2ccc(OCC3CNC(=O)O3)cc2)cc1 (centres undefined) here?
Answer: Its Potency is inconclusive: 6.51 µM [activator, full curve, poor fit].

Question: For CCOC(=O)c1ccccc1NC(=O)CSc1nc2ccccc2c(=O)n1CCCN1CCOCC1, which Potency is on record?
Answer: Its Potency is inconclusive: 29.1 µM [inhibitor, single point].

Question: With Nc1ccccc1NC(=O)c1ccccc1 as the compound, how does the Potency read?
Answer: The Potency was inconclusive: 29.1 µM [activator, single point].

Question: For COc1ccc(C(=O)CSc2cc(C)[nH]c(=O)n2)cc1, which Potency is on record?
Answer: Its Potency is inconclusive: 18.3 µM [activator, partial curve].

Question: Which Potency does the source give for O=C(NCc1ccco1)/C(=C/c1ccc(Br)cc1)NC(=O)c1ccco1 here?
Answer: The Potency was inconclusive: 18.3 µM [activator, partial curve, poor fit].

Question: Which Potency does the source give for C#CCOCCOCCOCCNc1nc(N2CCOCC2)nc(N2CCN(C(=O)[C@H](CCCN=C(N)N)n3cc(C(N)[C@@H](C)CC)nn3)CC2)n1 (some centres undefined) here?
Answer: Its Potency is inconclusive: 23.1 µM [activator, partial curve, poor fit].

Question: Which Potency does the source give for CN(CC(=O)NC(=O)Nc1ccccc1F)Cc1ccccc1F here?
Answer: Its Potency is inconclusive: 18.3 µM [activator, partial curve].

Question: For O=C(CNc1ccc(Br)cc1)c1ccccc1, which Potency is on record?
Answer: The Potency was inconclusive: 18.4 µM [activator, single point].

Question: With COC(=O)c1sccc1-c1ccc(C(=O)Nc2ccccc2)o1 as the compound, how does the Potency read?
Answer: Its Potency is inconclusive: 2.59 µM [activator, full curve].

Question: For COc1cccc(NC(=S)N2CCN(C(c3ccccc3)c3ccccc3)CC2)c1, which “activity change, negative = inhibition” value is on record?
Answer: Its value is inactive: -15.4%.

Question: Which “activity change, negative = inhibition” value does the source give for Cc1nc(N2CCC(C)CC2)c2c(C)c(C(=O)Nc3ccc(C(F)(F)F)cc3)sc2n1 here?
Answer: Its value is inactive: -9.66%.
